Results from patent US10302663B2, “Method of assessing pancreatic beta-cell function” (METABOLON, INC., priority 2011, dated 2019).
At least one structure is not confirmed: it was looked up by name or label, or the drawing left a doubt.

Assay: Beta-cell biomarker levels in fasted plasma in response to pioglitazone therapy in IGT subjects
Assay type: in vivo, human
Conditions: patients that responded to the drug therapy
Experimental: In another study, the relationship between changes in the IS/IR Disposition index and changes in the levels of the beta-cell function biomarkers, AHB and LGPC following drug treatment were determined. The study cohort consisted of 431 IGT subjects (FPG=105, 2-h PG [OGTT]=168, HbA1C=5.5%) who were randomized to pioglitazone (45 mg/day) or placebo and followed for 2.4 years. Fasted plasma samples were analyzed at baseline and study end for AHB, LGPC, insulin, HbA1c and Matsuda index.
A method for measuring each of the biomarkers listed in Table 4 in EDTA human plasma was developed. Human plasma samples were spiked with internal standards and subjected to protein precipitation as described below. Following centrifugation, the supernatant was removed and injected onto a Waters Acquity/Thermo Quantum Ultra LC-MS-MS system using four different chromatographic systems (column/mobile phase combinations).

SMILES: CCc1ccc(CCOc2ccc(CC3SC(=O)NC3=O)cc2)nc1 (centres unmarked) [PIO, pioglitazone]
- change in AHB level in response to PIO: decreased
- change in L-GPC level in response to PIO: increased
